In the supplement of paper PMC10849652:
The other results are listed elsewhere or left out.

By UniProt entry, the sequences of proteins in these tests, tags left out. Where a name states a change or a piece, a line headed by the entry shows the natural chain unless it says otherwise.
UniProt Q96HR3: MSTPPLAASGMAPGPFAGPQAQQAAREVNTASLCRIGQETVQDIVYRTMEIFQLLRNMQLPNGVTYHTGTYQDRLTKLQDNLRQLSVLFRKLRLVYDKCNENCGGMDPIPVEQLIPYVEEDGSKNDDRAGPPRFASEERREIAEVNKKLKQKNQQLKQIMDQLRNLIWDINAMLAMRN
UniProt Q6P1Q9: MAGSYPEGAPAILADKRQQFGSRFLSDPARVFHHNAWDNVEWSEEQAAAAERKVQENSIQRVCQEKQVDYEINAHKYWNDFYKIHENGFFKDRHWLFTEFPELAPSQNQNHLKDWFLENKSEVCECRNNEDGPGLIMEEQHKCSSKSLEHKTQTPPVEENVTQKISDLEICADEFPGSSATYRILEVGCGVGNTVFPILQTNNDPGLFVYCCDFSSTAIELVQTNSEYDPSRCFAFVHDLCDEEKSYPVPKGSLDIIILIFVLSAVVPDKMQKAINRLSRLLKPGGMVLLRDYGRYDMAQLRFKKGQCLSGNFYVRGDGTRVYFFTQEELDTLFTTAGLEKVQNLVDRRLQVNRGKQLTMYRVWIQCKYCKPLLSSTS
UniProt P48740: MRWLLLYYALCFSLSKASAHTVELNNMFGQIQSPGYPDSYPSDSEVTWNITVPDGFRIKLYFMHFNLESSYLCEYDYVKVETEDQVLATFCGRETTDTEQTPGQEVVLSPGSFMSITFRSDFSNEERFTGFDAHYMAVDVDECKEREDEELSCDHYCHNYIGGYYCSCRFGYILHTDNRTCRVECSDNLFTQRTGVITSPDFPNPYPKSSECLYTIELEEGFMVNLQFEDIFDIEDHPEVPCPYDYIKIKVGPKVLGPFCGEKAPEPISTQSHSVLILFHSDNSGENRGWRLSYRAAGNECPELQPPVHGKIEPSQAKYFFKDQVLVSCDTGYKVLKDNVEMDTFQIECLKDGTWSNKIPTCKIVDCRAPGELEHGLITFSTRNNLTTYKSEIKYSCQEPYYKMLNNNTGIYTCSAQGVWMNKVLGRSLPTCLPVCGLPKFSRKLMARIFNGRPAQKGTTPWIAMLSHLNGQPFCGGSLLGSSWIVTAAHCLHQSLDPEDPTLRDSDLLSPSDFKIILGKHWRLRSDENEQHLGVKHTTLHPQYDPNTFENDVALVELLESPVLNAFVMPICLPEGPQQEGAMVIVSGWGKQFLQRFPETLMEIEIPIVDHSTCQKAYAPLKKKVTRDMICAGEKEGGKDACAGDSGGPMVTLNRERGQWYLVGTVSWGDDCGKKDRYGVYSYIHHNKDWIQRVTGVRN
MCTS2P, A0A3B3IRV3, UniProt A0A3B3IRV3, whole entry, looked up: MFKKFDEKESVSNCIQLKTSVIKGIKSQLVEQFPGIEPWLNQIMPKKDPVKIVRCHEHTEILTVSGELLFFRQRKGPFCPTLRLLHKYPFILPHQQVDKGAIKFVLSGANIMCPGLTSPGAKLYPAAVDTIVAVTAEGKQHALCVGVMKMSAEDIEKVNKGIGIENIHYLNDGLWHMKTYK
UniProt Q6ZN04: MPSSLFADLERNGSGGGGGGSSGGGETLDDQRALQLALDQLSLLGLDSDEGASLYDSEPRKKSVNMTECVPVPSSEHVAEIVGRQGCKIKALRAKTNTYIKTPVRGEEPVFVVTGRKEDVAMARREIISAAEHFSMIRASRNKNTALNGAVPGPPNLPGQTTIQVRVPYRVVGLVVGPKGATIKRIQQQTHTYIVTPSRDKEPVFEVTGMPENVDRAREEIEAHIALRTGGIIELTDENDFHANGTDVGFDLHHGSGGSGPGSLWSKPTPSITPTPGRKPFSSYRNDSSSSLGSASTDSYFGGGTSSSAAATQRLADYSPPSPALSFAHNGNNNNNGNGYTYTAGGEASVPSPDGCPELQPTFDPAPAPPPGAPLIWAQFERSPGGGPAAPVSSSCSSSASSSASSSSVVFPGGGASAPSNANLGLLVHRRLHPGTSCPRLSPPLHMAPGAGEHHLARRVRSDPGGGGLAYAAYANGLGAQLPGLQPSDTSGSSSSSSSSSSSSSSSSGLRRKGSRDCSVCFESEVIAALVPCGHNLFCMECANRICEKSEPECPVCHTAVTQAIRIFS
UniProt Q6UX53: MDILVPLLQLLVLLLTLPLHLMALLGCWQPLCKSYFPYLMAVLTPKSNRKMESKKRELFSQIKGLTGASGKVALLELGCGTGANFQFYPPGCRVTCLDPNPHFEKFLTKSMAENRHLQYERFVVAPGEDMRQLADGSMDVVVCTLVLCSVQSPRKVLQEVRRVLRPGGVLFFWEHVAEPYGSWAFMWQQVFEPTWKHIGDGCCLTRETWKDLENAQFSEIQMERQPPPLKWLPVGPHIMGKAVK
UniProt Q9NR56: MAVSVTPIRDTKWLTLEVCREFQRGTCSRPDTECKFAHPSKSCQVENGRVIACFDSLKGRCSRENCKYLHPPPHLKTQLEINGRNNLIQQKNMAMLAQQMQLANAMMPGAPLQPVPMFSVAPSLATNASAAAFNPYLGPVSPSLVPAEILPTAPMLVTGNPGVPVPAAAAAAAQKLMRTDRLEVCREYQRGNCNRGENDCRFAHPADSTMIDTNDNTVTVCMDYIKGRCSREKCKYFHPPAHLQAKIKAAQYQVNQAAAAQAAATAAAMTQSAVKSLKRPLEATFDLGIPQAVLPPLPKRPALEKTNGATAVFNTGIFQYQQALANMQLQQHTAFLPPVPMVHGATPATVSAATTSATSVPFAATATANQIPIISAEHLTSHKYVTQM
UniProt Q9NWA0: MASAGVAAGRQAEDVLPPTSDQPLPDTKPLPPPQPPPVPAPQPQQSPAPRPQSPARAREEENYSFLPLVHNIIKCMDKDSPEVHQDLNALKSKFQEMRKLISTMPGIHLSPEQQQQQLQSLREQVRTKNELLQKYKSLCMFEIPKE
UniProt Q12866: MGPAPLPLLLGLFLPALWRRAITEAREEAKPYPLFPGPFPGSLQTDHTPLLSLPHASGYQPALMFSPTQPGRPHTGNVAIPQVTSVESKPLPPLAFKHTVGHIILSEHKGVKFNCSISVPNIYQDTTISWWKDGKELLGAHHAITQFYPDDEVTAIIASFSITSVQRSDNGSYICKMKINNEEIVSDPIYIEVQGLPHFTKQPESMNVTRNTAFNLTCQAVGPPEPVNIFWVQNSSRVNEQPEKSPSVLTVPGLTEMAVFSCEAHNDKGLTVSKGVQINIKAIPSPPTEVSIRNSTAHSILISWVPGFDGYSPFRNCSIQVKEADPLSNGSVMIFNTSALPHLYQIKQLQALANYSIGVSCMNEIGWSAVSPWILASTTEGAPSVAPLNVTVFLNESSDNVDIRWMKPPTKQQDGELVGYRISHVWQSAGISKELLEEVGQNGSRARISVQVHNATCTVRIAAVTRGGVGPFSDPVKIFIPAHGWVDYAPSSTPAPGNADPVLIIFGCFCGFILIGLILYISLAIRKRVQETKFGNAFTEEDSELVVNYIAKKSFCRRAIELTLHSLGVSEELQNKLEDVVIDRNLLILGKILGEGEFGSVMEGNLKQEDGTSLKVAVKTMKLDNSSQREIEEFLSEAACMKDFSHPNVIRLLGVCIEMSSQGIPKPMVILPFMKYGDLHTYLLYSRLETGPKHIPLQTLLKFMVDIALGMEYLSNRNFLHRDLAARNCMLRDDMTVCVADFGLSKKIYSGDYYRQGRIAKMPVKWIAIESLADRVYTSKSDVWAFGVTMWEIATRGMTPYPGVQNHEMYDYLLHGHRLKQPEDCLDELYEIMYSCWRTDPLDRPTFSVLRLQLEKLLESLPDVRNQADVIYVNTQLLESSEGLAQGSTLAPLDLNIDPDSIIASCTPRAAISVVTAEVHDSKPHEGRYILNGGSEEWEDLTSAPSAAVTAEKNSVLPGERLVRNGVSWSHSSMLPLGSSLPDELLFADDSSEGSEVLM
UniProt Q13503: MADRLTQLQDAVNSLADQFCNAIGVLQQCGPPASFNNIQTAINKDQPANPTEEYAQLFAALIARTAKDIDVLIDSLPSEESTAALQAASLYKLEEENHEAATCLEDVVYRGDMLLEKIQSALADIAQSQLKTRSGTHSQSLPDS
UniProt Q9H7H0: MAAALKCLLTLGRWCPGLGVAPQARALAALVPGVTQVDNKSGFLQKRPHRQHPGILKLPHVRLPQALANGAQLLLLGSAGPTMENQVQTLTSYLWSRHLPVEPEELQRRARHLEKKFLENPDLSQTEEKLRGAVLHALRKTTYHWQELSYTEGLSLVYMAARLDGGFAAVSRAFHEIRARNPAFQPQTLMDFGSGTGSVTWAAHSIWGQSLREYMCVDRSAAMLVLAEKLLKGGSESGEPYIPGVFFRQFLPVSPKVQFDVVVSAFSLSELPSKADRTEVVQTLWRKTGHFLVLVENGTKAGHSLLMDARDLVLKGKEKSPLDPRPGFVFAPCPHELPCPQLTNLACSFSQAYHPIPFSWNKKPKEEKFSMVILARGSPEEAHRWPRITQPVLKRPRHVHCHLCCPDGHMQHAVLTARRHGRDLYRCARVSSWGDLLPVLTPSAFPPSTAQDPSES
UniProt Q5VZF2: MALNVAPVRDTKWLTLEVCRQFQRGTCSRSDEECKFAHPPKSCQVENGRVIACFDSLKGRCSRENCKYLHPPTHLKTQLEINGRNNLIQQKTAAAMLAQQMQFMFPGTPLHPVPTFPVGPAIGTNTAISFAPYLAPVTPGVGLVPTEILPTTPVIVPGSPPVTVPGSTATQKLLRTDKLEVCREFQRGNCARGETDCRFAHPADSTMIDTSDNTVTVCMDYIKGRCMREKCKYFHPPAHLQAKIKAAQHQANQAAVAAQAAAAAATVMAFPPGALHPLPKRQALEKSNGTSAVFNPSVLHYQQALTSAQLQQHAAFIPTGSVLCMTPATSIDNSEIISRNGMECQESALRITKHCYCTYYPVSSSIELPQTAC
UniProt Q5SR56: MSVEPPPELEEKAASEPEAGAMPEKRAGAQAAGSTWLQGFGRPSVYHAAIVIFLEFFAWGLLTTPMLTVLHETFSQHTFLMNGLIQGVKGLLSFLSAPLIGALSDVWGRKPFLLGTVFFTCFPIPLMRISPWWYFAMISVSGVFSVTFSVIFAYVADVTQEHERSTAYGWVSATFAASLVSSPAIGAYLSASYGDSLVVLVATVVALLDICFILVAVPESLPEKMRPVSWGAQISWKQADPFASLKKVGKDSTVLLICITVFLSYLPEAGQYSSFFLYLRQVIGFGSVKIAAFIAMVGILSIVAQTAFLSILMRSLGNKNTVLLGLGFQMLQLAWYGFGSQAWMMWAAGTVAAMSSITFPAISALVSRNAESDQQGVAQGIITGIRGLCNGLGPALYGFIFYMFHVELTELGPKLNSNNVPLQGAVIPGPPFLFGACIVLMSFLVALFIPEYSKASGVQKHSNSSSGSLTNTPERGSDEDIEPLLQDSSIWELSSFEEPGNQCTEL
UniProt Q9NX70: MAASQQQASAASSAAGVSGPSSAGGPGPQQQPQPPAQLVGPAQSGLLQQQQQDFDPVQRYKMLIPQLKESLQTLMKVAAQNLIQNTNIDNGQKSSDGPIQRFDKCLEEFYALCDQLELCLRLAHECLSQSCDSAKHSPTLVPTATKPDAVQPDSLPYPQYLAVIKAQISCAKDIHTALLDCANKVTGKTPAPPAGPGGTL
UniProt Q96G25: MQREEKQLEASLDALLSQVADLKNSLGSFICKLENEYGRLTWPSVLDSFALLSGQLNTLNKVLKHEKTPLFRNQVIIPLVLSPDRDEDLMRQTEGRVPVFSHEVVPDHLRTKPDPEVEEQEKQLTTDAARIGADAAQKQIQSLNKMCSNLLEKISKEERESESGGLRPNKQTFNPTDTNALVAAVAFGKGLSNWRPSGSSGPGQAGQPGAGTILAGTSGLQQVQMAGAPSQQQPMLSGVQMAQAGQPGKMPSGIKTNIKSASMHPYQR
UniProt Q15528: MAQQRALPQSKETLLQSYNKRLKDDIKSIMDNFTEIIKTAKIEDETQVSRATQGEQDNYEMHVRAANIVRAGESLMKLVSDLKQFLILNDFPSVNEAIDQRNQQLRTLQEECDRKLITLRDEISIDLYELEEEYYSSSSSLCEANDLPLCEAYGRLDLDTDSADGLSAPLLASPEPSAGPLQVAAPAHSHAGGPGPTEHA
UniProt O95402: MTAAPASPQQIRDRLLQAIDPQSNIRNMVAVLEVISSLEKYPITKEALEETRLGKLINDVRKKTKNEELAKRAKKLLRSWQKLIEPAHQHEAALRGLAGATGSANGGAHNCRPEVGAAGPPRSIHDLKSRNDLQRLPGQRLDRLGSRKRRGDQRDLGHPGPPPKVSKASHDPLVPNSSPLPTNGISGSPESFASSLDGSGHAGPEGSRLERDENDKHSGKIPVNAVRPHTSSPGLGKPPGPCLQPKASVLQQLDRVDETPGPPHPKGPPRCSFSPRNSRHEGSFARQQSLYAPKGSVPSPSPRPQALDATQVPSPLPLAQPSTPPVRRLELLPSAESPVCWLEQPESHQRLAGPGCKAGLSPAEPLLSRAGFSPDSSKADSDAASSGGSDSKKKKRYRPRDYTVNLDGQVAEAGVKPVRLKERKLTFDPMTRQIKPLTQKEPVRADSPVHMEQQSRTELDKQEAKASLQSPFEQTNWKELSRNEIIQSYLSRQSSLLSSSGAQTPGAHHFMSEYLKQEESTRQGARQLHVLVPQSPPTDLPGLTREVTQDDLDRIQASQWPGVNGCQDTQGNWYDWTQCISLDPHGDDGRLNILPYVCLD

How the values were obtained:
Assay in all cases: log2 fold change, soluble protein after heating vs DMSO (PISA); higher = thermal stabilisation; K562 cells, 10 uM, 30 min; active = over 0.2 and 3.5 SD of the protein, either way, in both replicates (recomputed)
nilotinib = compound: Cc1cn(-c2cc(NC(=O)c3ccc(C)c(Nc4nccc(-c5cccnc5)n4)c3)cc(C(F)(F)F)c2)cn1 [nilotinib]
Method in brief: (§1)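 K562 cells at 2×10^6 cells/mL were treated for 30 min with 10 μM compound, and aliquots were heated for 3 min over 48°C-58°C before pooling. Extraction used PBS with 0.5% NP-40 at 4°C, and soluble protein was the supernatant after 21,000xg for 90 min, measured by TMTpro 16plex LC-MS/MS with channel sums equalised. Thermal stability values, relative to control samples and from duplicates, are log2 fold changes.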

[1] = compound: Cc1nc(Nc2n[nH]c3c2CN(C(=O)N[C@H](CN(C)C)c2ccccc2)C3(C)C)c2sccc2n1
Method in brief: as §1

[2] = compound: Cc1ncc(-c2ccnc(Nc3ccc(S(C)(=O)=O)cc3)n2)n1C(C)C
Method in brief: as §1

tipifarnib = compound: Cn1cncc1[C@@](N)(c1ccc(Cl)cc1)c1ccc2c(c1)c(-c1cccc(Cl)c1)cc(=O)n2C [tipifarnib]
Method in brief: as §1

[3] = compound: Cc1cccc(CC(=O)N2CCc3c2ccc(-c2cn(C)c4ncnc(N)c24)c3F)n1
Method in brief: as §1

dasatinib = compound: Cc1nc(Nc2ncc(C(=O)Nc3c(C)cccc3Cl)s2)cc(N2CCN(CCO)CC2)n1 [dasatinib]
Method in brief: as §1

[4] = compound: Cn1cc(-c2ccc3c(c2)CCN3C(=O)Cc2cccc(C(F)(F)F)c2)c2c(N)ncnc21
Method in brief: as §1

[5] = compound: Cn1cc(-c2ccc3nnc(C(F)(F)c4ccc5ncccc5c4)n3n2)cn1
Method in brief: as §1

mubritinib = compound: FC(F)(F)c1ccc(/C=C/c2nc(COc3ccc(CCCCn4ccnn4)cc3)co2)cc1 [mubritinib]
Method in brief: as §1

bafetinib = compound: Cc1ccc(NC(=O)c2ccc(CN3CC[C@H](N(C)C)C3)c(C(F)(F)F)c2)cc1Nc1nccc(-c2cncnc2)n1 [bafetinib]
Method in brief: as §1

Measured: log2 fold change

MEF2A (UniProt Q02078)
inactive: nilotinib 0.158 | [1] 0.006 | [2] 0.031 | tipifarnib -0.061

MED10 (UniProt Q9BTT4)
inactive: [3] 0.013 | nilotinib 0.136 | [1] 0.103 | dasatinib 0.096 | [2] -0.058 | [4] 0.029 | [5] 0.051 | tipifarnib 0.156 | mubritinib 0.005

MED30 (UniProt Q96HR3)
inactive: bafetinib -0.043 | nilotinib -0.002 | [1] -0.037 | dasatinib 0.076 | [2] -0.095 | [4] -0.058 | [5] -0.035 | tipifarnib 0.001 | mubritinib 0.072

METTL15 (UniProt A6NJ78)
inactive: bafetinib -0.165 | dasatinib -0.426

METTL2B (UniProt Q6P1Q9)
inactive: [3] -0.074 | dasatinib -0.114 | [4] -0.019 | [5] -0.078 | mubritinib 0.072

MASP1 isoform 2 (UniProt P48740)
inactive: [3] -0.009 | [4] 0.098

MCTS2P, A0A3B3IRV3
inactive: nilotinib -0.149 | [1] -0.024 | [2] 0.024

MEX3B (UniProt Q6ZN04)
inactive: bafetinib -0.057 | nilotinib -0.042 | [1] 0 | [2] -0.291 | [5] 0.02 | tipifarnib 0.133

METTL7B (UniProt Q6UX53)
inactive: [3] -0.067

MBNL1 isoform 5 (UniProt Q9NR56)
inactive: bafetinib -0.067 | nilotinib -0.034 | [1] -0.005 | [2] 0.03 | [5] -0.137 | mubritinib -0.024

METAP1D (UniProt Q6UB28)
inactive: bafetinib -0.089 | nilotinib -0.114 | [1] 0.036 | dasatinib 0.007 | [2] 0.079 | [4] -0.034 | [5] -0.071 | tipifarnib -0.023 | mubritinib 0.028

MED9 (UniProt Q9NWA0)
inactive: [3] -0.169 | nilotinib 0.043 | [1] 0.066 | dasatinib 0.001 | [2] -0.055 | [5] 0.229 | mubritinib -0.005

MATK isoform 2 (UniProt P42679)
inactive: nilotinib 0.027 | [1] 0.007 | dasatinib 0.051 | [2] 0.022 | [4] -0.184

MERTK (UniProt Q12866)
inactive: bafetinib -0.145 | nilotinib -0.021 | [1] -0.053 | dasatinib 0.057 | [2] -0.054 | [4] -0.004 | tipifarnib 0.039 | mubritinib 0.156

MEF2A isoform 2 (UniProt Q02078)
inactive: [3] 0.155 | nilotinib -0.056 | [1] 0.032 | [2] -0.152 | [4] 0.038 | tipifarnib 0.08 | mubritinib 0.114

MED21 (UniProt Q13503)
inactive: [3] -0.286 | nilotinib 0.11 | [1] 0.113 | [2] -0.274 | [4] 0.159 | [5] 0.216 | tipifarnib 0.155 | mubritinib -0.047

MED11 (UniProt Q9P086)
inactive: mubritinib -0.346

MEGF10 (UniProt Q96KG7)
inactive: tipifarnib 0.269

METTL17 isoform 3 (UniProt Q9H7H0)
inactive: [4] -0.232 | [5] 0.084 | tipifarnib -0.04 | mubritinib 0.153

MASTL (UniProt Q96GX5)
inactive: bafetinib 0.143 | nilotinib 0.014 | [1] 0.002 | dasatinib -0.105 | [2] 0.021 | [4] -0.052 | [5] 0.276 | mubritinib -0.093

MBIP (UniProt Q9NS73)
inactive: bafetinib -0.029 | [5] -0.019 | tipifarnib 0.101 | mubritinib 0.029

MAU2 (UniProt Q9Y6X3)
inactive: [3] -0.174 | [5] -0.077 | tipifarnib 0.11 | mubritinib -0.008

MBNL2 (UniProt Q5VZF2)
inactive: [3] -0.061 | [5] -0.059 | tipifarnib 0.012

METTL26 (UniProt Q96S19)
inactive: bafetinib 0.101 | nilotinib -0.103 | [1] 0.034 | [2] 0.07 | tipifarnib -0.06 | mubritinib 0.155

MED13L (UniProt Q71F56)
inactive: [4] 0.046 | tipifarnib 0.182

MFSD14B (UniProt Q5SR56)
inactive: nilotinib 0.009 | [1] -0.015 | dasatinib 0.027 | [2] -0.042 | [4] 0.003 | tipifarnib 0.148 | mubritinib 0.028

MED31 (UniProt Q9Y3C7)
inactive: nilotinib 0.041 | [1] 0.04 | [2] -0.161 | [5] 0.05 | mubritinib 0.014

MED29 (UniProt Q9NX70)
inactive: nilotinib 0.017 | [1] 0.027 | dasatinib 0.226 | [2] -0.14 | tipifarnib 0.169 | mubritinib -0.136

MFSD12 isoform 3 (UniProt Q6NUT3)
inactive: [3] 0.047 | dasatinib -0.093 | [4] -0.124

MED8 isoform 2 (UniProt Q96G25)
inactive: bafetinib -0.026 | nilotinib 0.016 | [1] -0.015 | dasatinib 0.034 | [2] -0.171 | [4] -0.086 | [5] 0.013 | tipifarnib 0.012 | mubritinib -0.059

MEGF8 (UniProt Q7Z7M0)
inactive: nilotinib -0.303 | [1] -0.167 | [2] -0.017

MED22 (UniProt Q15528)
inactive: bafetinib -0.137 | nilotinib 0.019 | [1] -0.048 | dasatinib -0.009 | [2] -0.011 | [4] 0.102 | [5] 0.059 | mubritinib -0.043

MED26 (UniProt O95402)
inactive: [3] 0.033 | dasatinib 0.046 | [4] 0.032 | [5] -0.258 | tipifarnib 0.062

Reprinted at random: two entries already listed
MASTL (UniProt Q96GX5)
inactive: bafetinib 0.143 | nilotinib 0.014 | [1] 0.002 | dasatinib -0.105 | [2] 0.021 | [4] -0.052 | [5] 0.276 | mubritinib -0.093

MCTS2P, A0A3B3IRV3
inactive: nilotinib -0.149 | [1] -0.024 | [2] 0.024

Continued:

MFAP3 (UniProt P55082)
inactive: bafetinib -0.385 | dasatinib -0.083

MFSD9 (UniProt Q8NBP5)
inactive: nilotinib -0.215 | [1] -0.009 | dasatinib 0.012 | [2] 0.032 | [4] 0.054 | tipifarnib -0.037 | mubritinib -0.099

MED17 (UniProt Q9NVC6)
inactive: [3] -0.033 | nilotinib 0.069 | [1] 0.079 | dasatinib -0.152 | [2] -0.108 | [4] -0.033 | [5] -0.069 | tipifarnib 0.077 | mubritinib 0.015
